Source: PubChem BioAssay AID1053208 (Peter MacCallum Cancer Centre, 2014)

Assay: 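Synthetic lethal interactions between gene loss and doxorubicin in osteosarcoma cells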 (primary screen)
Cell system: mouse osteosarcoma cells, early-passage culture from an engineered mouse model of fibroblastic bone tumour
Reagent: siRNA pool against mouse genes, 40 nM
Timing: about 120 h (48 h before drug, then 72 h with drug)
Treatment: doxorubicin 100 nM for 72 h, roughly 30-40% inhibitory dose
Measured: 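Viability read as ATP luminescence after 72 h of 100 nM doxorubicin or none, duplicate wells averaged, scaled to non-targeting siRNA, then expressed as robust z-scores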
Reading the numbers: viability z-score with doxorubicin: higher = more viable cells under doxorubicin; viability z-score without drug: higher = more viable cells with knock-down alone
Rule for the call: 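a pool counts as active when its viability z-score with doxorubicin is -2 or below and its z-score without drug lies between -2 and 2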
Shown is an unselected part of about 17,000 reagents. Of all reagents, 788 (4.7%) were called active. 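Calls rest on z-score classes alone; an extra cut-off of viability at most 70% of control was not applied to them.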 Reagents against one gene are numbered here. A reagent listed more than once was tested more than once; the source does not tell the runs apart. Not all columns of the deposit are shown.

Gene | reagent | combined z-score class | viability z-score with doxorubicin | viability z-score without drug | Call
Ctu1 | 1 | no change with or without drug | -1.8 | -1.52 | inactive
Hes1 | 1 | no change with or without drug | 0.9 | 0.17 | inactive
Knstrn | 1 | no change with or without drug | -0.67 | 0.67 | inactive
Fhl4 | 1 | no change with or without drug | -0.11 | -1.18 | inactive
Itga6 | 1 | no change with or without drug | -0.56 | -0.84 | inactive
Slc35e3 | 1 | no change with or without drug | 0.67 | 0.34 | inactive
H2bc21 | 1 | no change with or without drug | 0.34 | -0.17 | inactive
Memo1 | 1 | no change with or without drug | -0.45 | -0.84 | inactive
Eri2 | 1 | no change with or without drug | 1.12 | 1.85 | inactive
Slf1 | 1 | no change with or without drug | -0.22 | 0.51 | inactive
Or3a1b | 1 | no change with or without drug | 0.45 | 0.17 | inactive
Gal3st1 | 1 | no change with or without drug | 0.9 | 1.35 | inactive
Or51f23 | 1 | no change with or without drug | -1.01 | -1.85 | inactive
Cysltr2 | 1 | no change with or without drug | -0.34 | 1.01 | inactive
Btc | 1 | no change with or without drug | -0.67 | 0.51 | inactive
Gbgt1 | 1 | no change with or without drug | -0.22 | -0.17 | inactive
Taco1 | 1 | low cell count with and without drug | -5.73 | -3.2 | inactive
Aqp2 | 1 | no change with or without drug | 0.45 | 0 | inactive
B230220N19Rik | 1 | no change with or without drug | 0.67 | -0.84 | inactive
Slco1a6 | 1 | no change with or without drug | -0.45 | -1.18 | inactive
Myo1h | 1 | no change with or without drug | 0.79 | 0.17 | inactive
Pip5k1c | 1 | no change with or without drug | -0.34 | 1.85 | inactive
Jade2 | 1 | no change with or without drug | -0.9 | 0.51 | inactive
Cypt4 | 1 | no change with or without drug | -1.8 | -1.85 | inactive
Thoc3 | 1 | no change with or without drug | -0.34 | 0 | inactive
Morf4l2 | 1 | low cell count without drug only | -1.35 | -2.02 | inactive
Zcchc17 | 1 | no change with or without drug | 1.12 | 0.17 | inactive
Polr3e | 1 | low cell count without drug only | -1.8 | -2.7 | inactive
Ggh | 1 | no change with or without drug | 1.35 | -0.51 | inactive
Kcnj14 | 1 | no change with or without drug | -1.24 | -1.52 | inactive
Arhgap8 | 1 | no change with or without drug | 1.91 | 0.34 | inactive
Gm5148 | 1 | no change with or without drug | 0 | -1.52 | inactive
Tmem41b | 1 | no change with or without drug | 0.22 | -0.51 | inactive
Asb17 | 1 | low cell count with doxorubicin only | -4.05 | 0.51 | active
Fzd8 | 1 | no change with or without drug | -0.34 | -0.17 | inactive
Ccdc97 | 1 | no change with or without drug | 1.69 | -1.18 | inactive
B230317F23Rik | 1 | no change with or without drug | 0.79 | 0 | inactive
Gatm | 1 | low cell count with doxorubicin only | -2.7 | -1.18 | active
Ephb3 | 1 | no change with or without drug | -0.67 | -1.52 | inactive
Ppp2r3a | 1 | no change with or without drug | -0.22 | 0 | inactive
Phyhip | 1 | no change with or without drug | -1.57 | 0 | inactive
Pttg1ip | 1 | no change with or without drug | -0.67 | -0.17 | inactive
Ttyh1 | 1 | low cell count with doxorubicin only | -2.92 | -0.84 | active
Gtf3c1 | 1 | no change with or without drug | 0.9 | 0.67 | inactive
Defb41 | 1 | no change with or without drug | -0.34 | -0.17 | inactive
Snrpc | 1 | no change with or without drug | 0 | 0.34 | inactive
Ctss | 1 | no change with or without drug | -1.35 | -1.85 | inactive
Pik3cg | 1 | no change with or without drug | -0.22 | 0.17 | inactive
Pik3cg | 1 | no change with or without drug | -0.45 | 0.84 | inactive
Xk | 1 | no change with or without drug | -1.35 | 0.17 | inactive
Rhbdd2 | 1 | no change with or without drug | -0.67 | 0.51 | inactive
Rhbdd2 | 2 | no change with or without drug | -1.35 | -0.17 | inactive
Gtpbp1 | 1 | no change with or without drug | -0.45 | -0.84 | inactive
Tpmt | 1 | no change with or without drug | 0.22 | 0.51 | inactive
Cdkn1b | 1 | no change with or without drug | 0 | -1.01 | inactive
Samtor | 1 | no change with or without drug | -0.11 | -0.51 | inactive
Tyrp1 | 1 | no change with or without drug | -1.57 | -1.69 | inactive
Plaat1 | 1 | no change with or without drug | -0.22 | 0.17 | inactive
4930565A21RIK | 1 | no change with or without drug | -1.01 | 0 | inactive
Nsg1 | 1 | no change with or without drug | -0.45 | 0.34 | inactive
Ears2 | 1 | no change with or without drug | -1.12 | -0.51 | inactive
Ssxb13 | 1 | no change with or without drug | 0.22 | 0 | inactive
Gpx3 | 1 | no change with or without drug | 0.79 | -0.67 | inactive

Part of the list above, reduced to “viability z-score without drug”:
Morf4l2	-2.02
Zcchc17	0.17
Polr3e	-2.7
Ggh	-0.51
Kcnj14	-1.52
Arhgap8	0.34
Gm5148	-1.52
Tmem41b	-0.51
Asb17	0.51
Fzd8	-0.17
